Our source for the binding signal values is article PMC7819943, “Rice protein-binding microarrays: a tool to detect cis-acting elements near promoter regions in rice”.

Amino acid sequences for entries named in this document (tags omitted).
UniProt Q0JBA9, entry or part of it: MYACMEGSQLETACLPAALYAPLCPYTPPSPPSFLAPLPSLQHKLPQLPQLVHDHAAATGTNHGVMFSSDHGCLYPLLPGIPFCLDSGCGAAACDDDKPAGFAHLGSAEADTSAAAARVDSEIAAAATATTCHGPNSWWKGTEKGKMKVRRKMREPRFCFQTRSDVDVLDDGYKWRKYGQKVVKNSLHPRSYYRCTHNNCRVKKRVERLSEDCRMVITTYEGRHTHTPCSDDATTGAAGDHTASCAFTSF

The list shows a part of the results.

The target in the experiment is OsWRKY34 (Oryza sativa, UniProt Q0JBA9 1-250). Put plainly: protein-binding microarray (RPBM); PBS, 2% BSA, 51.3 ng/ul salmon testes DNA, 50 uM zinc acetate, 200 nM TF, 25 C, 1 h; high values mean tight binding. Conditions: protein: recombinant; tags: N-terminal polyhistidine and DsRed monomer fusion (pET32a); label: CyDye5-dUTP incorporated in the synthesized complementary strand; 3' TTTTT single-stranded linker to array surface; dsDNA, one strand shown. In outline: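 In PBS with 2% BSA, salmon testes DNA and 50 µM zinc acetate, 200 nM protein was incubated on a custom Agilent array at 25 °C for 1 h and then washed off. The array had been made double-stranded by primer extension with Cy5-dUTP and blocked with 2% BSA. The proteins were transcription factors fused N-terminally to polyhistidine and DsRed, expressed in E. coli BL21-CodonPlus and purified on Ni–NTA. The binding signal is per-feature fluorescence intensity (arbitrary units) from an Axon 4000B scanner.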
In the case of “CGTTTGTTTTCCATCCCATTTCTCGTTCATCCTCTCCCTGCGGAGTCACCTAGTGCAG”, the binding signal is 12100 fluorescence intensity (a.u.).
For “ATGATTGTACCACACTGCCTGAGTCTAACTGTGTCGTTTCCGGAGTCACCTAGTGCAG”, the binding signal was 10200 fluorescence intensity (a.u.).
Turning to “TGTCGGTGCAATCTGGGCAATTTCAGTACTTTGCGAGCATCGGAGTCACCTAGTGCAG”, the binding signal was 9080 fluorescence intensity (a.u.).
With “GACCGCCAATGATTCTCCTGCGATATCTACTCCTGCATGTCGGAGTCACCTAGTGCAG”, the binding signal is 10000 fluorescence intensity (a.u.).
With “TAATTAAAACCCTCGTCTAACCCACCGCTATCCGCATTTACGGAGTCACCTAGTGCAG” the figure was 8290 fluorescence intensity (a.u.); with “CCCTCGTCATCCGTCCCTTCCCTCCATTCAAACGCGAAAACGGAGTCACCTAGTGCAG”, 8160 fluorescence intensity (a.u.); with “TGAGATAGATGCTCCCGCCCTGCCGTCTTCCTCGTCTCCGCGGAGTCACCTAGTGCAG”, 8150 fluorescence intensity (a.u.).
On to “GTGGTGGCGGTGGAGGTGGAGGTGGAGGCGCCGTGGTGCGCGGAGTCACCTAGTGCAG”, for which the binding signal was 12600 fluorescence intensity (a.u.).
On to “CTATGGCTACCTTTTCCCATTATTTTTTTCACATAGTGTTCGGAGTCACCTAGTGCAG”, for which the binding signal was 10200 fluorescence intensity (a.u.).
Regarding “ACGCCGTTGACTTTTTAAAATATGTTTGACCGTTTATCTTCGGAGTCACCTAGTGCAG”, the binding signal is 45700 fluorescence intensity (a.u.).
As to “TGAGACTTGAGAATTGGATTTATCAGTTTGAGGGGTTTTTCGGAGTCACCTAGTGCAG”, the binding signal was 9720 fluorescence intensity (a.u.).
With “GAGGGGAGGGAGAGGTCGGAGATGGTTACCGGTGGGGAAGCGGAGTCACCTAGTGCAG” the figure was 12300 fluorescence intensity (a.u.).
Regarding “AGCTGCTCTTGCTCTTCCTGCTCCGCCGTCACCTCCACCACGGAGTCACCTAGTGCAG”, the binding signal is 9260 fluorescence intensity (a.u.).
With “TTGCTTATTCCTCTTGTAATCTGTGGTTTTCTCCATATAACGGAGTCACCTAGTGCAG” the figure was 11200 fluorescence intensity (a.u.).
Take “GTCCTCGCCGTGTCGTTTCCCCAACCGCCGCGCCGCTTCGCGGAGTCACCTAGTGCAG”: the binding signal was 8280 fluorescence intensity (a.u.).
As for “GATTGGTGGGAATTATATATGTGGTCCAATTGGCTCTTTTCGGAGTCACCTAGTGCAG”, the binding signal is 10100 fluorescence intensity (a.u.).
For the sequence “GTGGGAGCAAGTTTGGGGCACTTCTTGGAGGCTAGATTGTCGGAGTCACCTAGTGCAG”, the binding signal was 8500 fluorescence intensity (a.u.).
Take “TAACATTGATTGTTATGTCACTTGTCTGTGGATCAACTCTCGGAGTCACCTAGTGCAG”: the binding signal was 9060 fluorescence intensity (a.u.).
With “AACATTCTTCTCCTTTTCTTCTTCTTCCTCCTCTCGTCGACGGAGTCACCTAGTGCAG” the figure was 9210 fluorescence intensity (a.u.); with “CTCCGCCTCATTATAAGTACAATCATAGGTTTTCACGTCACGGAGTCACCTAGTGCAG”, 10200 fluorescence intensity (a.u.); with “TGTCAGTTACTTCCAAGTTGCTGTCCTTTAGGTCTCTTCTCGGAGTCACCTAGTGCAG”, 8140 fluorescence intensity (a.u.).
For “GACCCACGACGCCAACTTCGCCACCAGGCCCAGGCTCCTCCGGAGTCACCTAGTGCAG”, the binding signal is 8820 fluorescence intensity (a.u.).
Regarding “AGAGTACTAATTGTTCTATCAATCACTTTTCATTCAAATTCGGAGTCACCTAGTGCAG”, the binding signal is 8040 fluorescence intensity (a.u.).
With “CTGTTGGTCGTCTCCTCTCTATGTCAGCCGCACCAAGGTGCGGAGTCACCTAGTGCAG” the figure was 8050 fluorescence intensity (a.u.).
With “GATTGTTGCATGTGTATACCTTATAGTGAAAAGTGTTTTCCGGAGTCACCTAGTGCAG” the figure was 9300 fluorescence intensity (a.u.); with “TGCTGTCCTTCCCACCATTGCTCTGCAACCTGCCGTCACCCGGAGTCACCTAGTGCAG”, 8330 fluorescence intensity (a.u.).
With “TTGTAGTGTGCCCGATCTGCGAGTATCCTGGTATTGTGTACGGAGTCACCTAGTGCAG”, the binding signal is 9820 fluorescence intensity (a.u.).
For “CCCCGCGTCTCTTTTCCGCACCCATCTGCTGCAGCTGCGCCGGAGTCACCTAGTGCAG”, the binding signal is 8780 fluorescence intensity (a.u.).
“TCGATTTTTTTTGTGTTTTTTTTTGCGTGCGGGCGGTATTCGGAGTCACCTAGTGCAG”: the binding signal is 10900 fluorescence intensity (a.u.).
The value for “ATTCAATTCTATCATATCCTTATCCATCATGTCGTTCATTCGGAGTCACCTAGTGCAG” was 9200 fluorescence intensity (a.u.).
Regarding “GGTTGACTTTACTTCTTTGGGCCTCTCAGATATGTTCTTTCGGAGTCACCTAGTGCAG”, the binding signal is 11400 fluorescence intensity (a.u.).
As to “GATGGTTGGGGATGAGCTTGGTAGCCATATGGCTATCTCGCGGAGTCACCTAGTGCAG”, the binding signal is 8110 fluorescence intensity (a.u.).
In the case of “TAATGTTCCACAGCTAATTACGTATTTTTTTGAGTGTCCTCGGAGTCACCTAGTGCAG”, the binding signal was 8640 fluorescence intensity (a.u.).
As to “CTTCTAATTTTTTCGTCACTTACACAGAAACATTTAACTTCGGAGTCACCTAGTGCAG”, the binding signal was 8220 fluorescence intensity (a.u.).
As for “GTTCCTCTTGCTGCTATTCATGTCATGATATCACAACTCACGGAGTCACCTAGTGCAG”, the binding signal is 9860 fluorescence intensity (a.u.).
Regarding “AGACGAACGGTCAAACATGTTTAAAAAAGTCAACAGCGTTCGGAGTCACCTAGTGCAG”, the binding signal was 10800 fluorescence intensity (a.u.).
“TCATAATTTACATGTAAACTGTGTAATTGTTTTTTTTCACCGGAGTCACCTAGTGCAG”: the binding signal was 8370 fluorescence intensity (a.u.).
On to “CCTCTCGTTCCTCCGTGTGGTTTCCGGCATGTATATATAACGGAGTCACCTAGTGCAG”, for which the binding signal is 10200 fluorescence intensity (a.u.).
As for “CCCCGCCCCAAATATTCTCTCGCATTCGCGTTCCCACCGCCGGAGTCACCTAGTGCAG”, the binding signal is 8280 fluorescence intensity (a.u.).
“GTGGTGTATGTATACGTCTGTGTTGTAATCGTATGAAAATCGGAGTCACCTAGTGCAG”: the binding signal was 8570 fluorescence intensity (a.u.).
For the sequence “GTCTCCGAGTCTTATCCGCTCAACGCGGTCAGTACGCGCGCGGAGTCACCTAGTGCAG”, the binding signal was 8250 fluorescence intensity (a.u.).
Consider “ACTAACATTCGGTGGGGTTTTTGTAATTTTCCCAACTTCACGGAGTCACCTAGTGCAG”, for which the binding signal was 8380 fluorescence intensity (a.u.).
For “CCACCCGCTGTCTCTGCTGGACTCCACTTTCTCGCCTCTACGGAGTCACCTAGTGCAG”, the binding signal was 11700 fluorescence intensity (a.u.).
For “GCGCCCTAACAACCCACCCCGCAAGTCGGCAACCCTAGCCCGGAGTCACCTAGTGCAG”, the binding signal is 9480 fluorescence intensity (a.u.).
On to “GGGGACATGAGGTGGGCACGTGAGCGAGGGGCACATCTGTCGGAGTCACCTAGTGCAG”, for which the binding signal was 8900 fluorescence intensity (a.u.).
With “TGAAATTTCAACTTGATCCCATCCATGCTCTTACCGTCATCGGAGTCACCTAGTGCAG” the figure was 8350 fluorescence intensity (a.u.).
In the case of “TACGTGGCGTGAAATCTCTGATGTGGGAGGCTGGGGTTGACGGAGTCACCTAGTGCAG”, the binding signal was 10500 fluorescence intensity (a.u.).
With “TTAATTCTCATGCACTTTTTCTTTGCTTTCTCTATATGACCGGAGTCACCTAGTGCAG” the figure was 14100 fluorescence intensity (a.u.).
Turning to “ATTTGCTTAATTCTTGTCTACTTGACCTCCCTGACATATTCGGAGTCACCTAGTGCAG”, the binding signal was 8180 fluorescence intensity (a.u.).
The value for “AATCCTAACATTACACTTCTTAATCTTGCATCTAATTTTCCGGAGTCACCTAGTGCAG” was 9270 fluorescence intensity (a.u.).
With “ACCATTTTATAAGCCATTTTCTTGACACCTGCTTTGTACGCGGAGTCACCTAGTGCAG” the figure was 10200 fluorescence intensity (a.u.); with “TTCAGTGGGGTTTTCGTGGGGTCTCTCATAGTCTTCACGCCGGAGTCACCTAGTGCAG”, 9060 fluorescence intensity (a.u.).
The value for “CCGCCGGCCGCCGTCCTCGCCATCTCCGCCGGCCGCCGTCCGGAGTCACCTAGTGCAG” was 8440 fluorescence intensity (a.u.).
With “TTCTTCATTATCTCTATTTGTGGTGCTATTGGTTTATTTTCGGAGTCACCTAGTGCAG”, the binding signal is 8980 fluorescence intensity (a.u.).
